Laboratory results reported in paper PMC9512921.
Results are given in words; binding and its absence hold for the method and conditions named. Binding seen in cells or lysates may run through a third protein. Binding calls can cover weak binding; strength is not graded here. Where a sequence is shown, tags or fusion partners need not be part of it.

Biological target: T1, Flag-USP15 WT (UniProt Q9Y4E8)
T1 sequence: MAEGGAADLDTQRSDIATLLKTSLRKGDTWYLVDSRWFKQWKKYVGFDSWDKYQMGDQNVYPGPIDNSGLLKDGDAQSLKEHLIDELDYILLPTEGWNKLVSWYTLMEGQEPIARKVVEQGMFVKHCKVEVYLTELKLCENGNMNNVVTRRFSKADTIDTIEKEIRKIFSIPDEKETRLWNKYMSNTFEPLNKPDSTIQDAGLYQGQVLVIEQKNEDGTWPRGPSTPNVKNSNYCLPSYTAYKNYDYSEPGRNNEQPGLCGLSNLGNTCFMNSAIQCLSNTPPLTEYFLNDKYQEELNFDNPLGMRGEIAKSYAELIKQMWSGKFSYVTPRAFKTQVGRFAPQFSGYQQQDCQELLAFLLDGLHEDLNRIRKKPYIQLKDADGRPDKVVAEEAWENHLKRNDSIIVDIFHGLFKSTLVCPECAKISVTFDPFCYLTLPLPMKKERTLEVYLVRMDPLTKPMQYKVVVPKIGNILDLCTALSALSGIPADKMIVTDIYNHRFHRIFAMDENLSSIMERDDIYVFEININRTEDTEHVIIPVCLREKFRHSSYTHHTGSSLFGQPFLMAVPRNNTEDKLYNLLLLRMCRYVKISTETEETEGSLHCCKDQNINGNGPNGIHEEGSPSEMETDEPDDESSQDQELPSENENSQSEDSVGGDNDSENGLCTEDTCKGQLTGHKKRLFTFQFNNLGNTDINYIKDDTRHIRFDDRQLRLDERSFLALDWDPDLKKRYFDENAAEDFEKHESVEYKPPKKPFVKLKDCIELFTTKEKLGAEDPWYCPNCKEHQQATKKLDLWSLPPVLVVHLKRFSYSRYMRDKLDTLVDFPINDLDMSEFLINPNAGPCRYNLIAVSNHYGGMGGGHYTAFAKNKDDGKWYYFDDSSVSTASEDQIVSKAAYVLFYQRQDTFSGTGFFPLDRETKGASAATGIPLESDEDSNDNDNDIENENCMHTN
Assay: co-IP; HEK293 cells co-transfected with Myc-p66Shc (or its mutants) and Flag-USP15 (WT or C269A); IP with anti-Flag or anti-Myc antibody; western blot

Myc-p66Shc truncated mutant, SH2 domain (from UniProt P29353-1) (domain or fragment)
binding: binds
